# No constants are given. Whether binding was seen depends on the method and setting. Binding seen in cells or lysates may run through a third protein. Some entries that bind do so weakly or less than the wild type.
# By UniProt entry, the sequences of proteins in these tests, tags left out.
# UniProt Q8CFI0: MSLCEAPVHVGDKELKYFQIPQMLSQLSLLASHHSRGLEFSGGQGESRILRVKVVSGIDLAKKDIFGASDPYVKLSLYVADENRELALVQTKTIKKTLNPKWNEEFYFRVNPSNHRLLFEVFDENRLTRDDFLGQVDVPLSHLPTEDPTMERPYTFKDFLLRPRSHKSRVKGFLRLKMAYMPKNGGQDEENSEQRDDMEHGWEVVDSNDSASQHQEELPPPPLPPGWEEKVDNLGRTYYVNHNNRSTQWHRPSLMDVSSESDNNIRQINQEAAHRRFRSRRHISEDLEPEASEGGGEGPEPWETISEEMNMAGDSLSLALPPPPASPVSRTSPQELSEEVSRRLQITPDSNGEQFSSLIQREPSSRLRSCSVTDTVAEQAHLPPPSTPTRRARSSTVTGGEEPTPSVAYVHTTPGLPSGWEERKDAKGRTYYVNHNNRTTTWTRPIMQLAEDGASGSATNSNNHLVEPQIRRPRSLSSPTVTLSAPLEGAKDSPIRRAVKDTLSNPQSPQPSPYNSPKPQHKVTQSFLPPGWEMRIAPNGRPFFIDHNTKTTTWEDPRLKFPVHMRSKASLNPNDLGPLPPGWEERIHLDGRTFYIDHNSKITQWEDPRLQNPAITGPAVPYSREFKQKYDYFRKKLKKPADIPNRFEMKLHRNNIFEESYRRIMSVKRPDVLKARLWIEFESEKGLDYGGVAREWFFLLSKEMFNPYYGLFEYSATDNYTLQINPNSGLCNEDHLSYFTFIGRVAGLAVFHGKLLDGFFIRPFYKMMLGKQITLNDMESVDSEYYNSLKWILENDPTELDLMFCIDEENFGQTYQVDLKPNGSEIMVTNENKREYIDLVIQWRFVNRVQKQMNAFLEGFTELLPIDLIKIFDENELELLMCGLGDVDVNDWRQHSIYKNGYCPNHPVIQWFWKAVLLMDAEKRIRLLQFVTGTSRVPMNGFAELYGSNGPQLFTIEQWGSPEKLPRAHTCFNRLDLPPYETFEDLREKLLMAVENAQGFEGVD
# Biological target: T1, nephrin (mouse (endogenous in conditionally immortalized mouse podocytes)) (UniProt Q9QZS7)
# T1 sequence: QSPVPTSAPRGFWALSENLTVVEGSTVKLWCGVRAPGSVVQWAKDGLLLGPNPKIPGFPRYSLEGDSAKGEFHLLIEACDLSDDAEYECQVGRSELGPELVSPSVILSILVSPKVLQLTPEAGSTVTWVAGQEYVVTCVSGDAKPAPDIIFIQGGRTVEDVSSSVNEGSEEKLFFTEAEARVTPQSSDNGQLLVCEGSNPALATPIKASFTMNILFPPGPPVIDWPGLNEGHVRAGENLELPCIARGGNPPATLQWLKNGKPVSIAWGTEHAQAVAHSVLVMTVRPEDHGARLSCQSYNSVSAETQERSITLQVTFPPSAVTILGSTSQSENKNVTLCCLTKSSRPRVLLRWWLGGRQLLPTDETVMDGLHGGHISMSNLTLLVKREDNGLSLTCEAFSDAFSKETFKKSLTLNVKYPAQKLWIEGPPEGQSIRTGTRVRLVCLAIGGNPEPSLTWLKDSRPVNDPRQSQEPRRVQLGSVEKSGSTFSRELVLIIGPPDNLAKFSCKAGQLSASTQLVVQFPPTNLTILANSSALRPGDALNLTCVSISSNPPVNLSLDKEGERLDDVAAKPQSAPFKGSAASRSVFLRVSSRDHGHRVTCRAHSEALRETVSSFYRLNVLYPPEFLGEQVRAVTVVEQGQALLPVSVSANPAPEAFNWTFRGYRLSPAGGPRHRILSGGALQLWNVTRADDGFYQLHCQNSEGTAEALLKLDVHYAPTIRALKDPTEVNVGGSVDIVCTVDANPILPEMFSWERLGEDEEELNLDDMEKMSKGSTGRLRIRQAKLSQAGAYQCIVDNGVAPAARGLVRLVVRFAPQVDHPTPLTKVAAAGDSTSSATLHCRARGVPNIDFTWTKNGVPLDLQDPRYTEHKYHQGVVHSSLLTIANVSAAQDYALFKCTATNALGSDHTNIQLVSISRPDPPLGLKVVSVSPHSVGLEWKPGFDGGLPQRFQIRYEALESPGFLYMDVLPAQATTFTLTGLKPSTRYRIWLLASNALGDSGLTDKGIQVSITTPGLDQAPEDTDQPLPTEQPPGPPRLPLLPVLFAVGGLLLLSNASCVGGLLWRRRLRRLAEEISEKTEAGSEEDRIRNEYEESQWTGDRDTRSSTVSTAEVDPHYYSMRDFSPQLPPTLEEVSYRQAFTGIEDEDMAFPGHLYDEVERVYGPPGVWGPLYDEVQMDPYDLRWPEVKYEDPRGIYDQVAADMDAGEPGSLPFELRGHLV
# Assay: co-IP; mouse podocytes transfected with mouse Nedd4-2 plasmid or empty vector for 48 h; 1 mg of lysate (IP lysis buffer) incubated with anti-nephrin antibody and protein A/G agarose beads; blotted with anti-Nedd4-2
substance,measurement,value
neural precursor cells expressing developmentally downregulated protein 4 subtype 2 (Nedd4-2) (from UniProt Q8CFI0 1-1004) (enzyme),binding,binds

# Source: article PMC8811367
